Experimental data: PubChem BioAssay AID1224828 (NIAID, 2016)
Test: 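Regulators linking TLR4 signalling to p65 nuclear translocation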 (primary screen). System: mouse RAW264.7 G9 macrophage reporter cells (GFP-p65, Tnf promoter-mCherry). Reagent: siRNA pool against mouse genes, 100 nM. Timing: 2 days siRNA transfection, then 40 min LPS before fixation. Challenge: LPS (Salmonella minnesota R595) at 10 ng/ml. Measurement: 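Imaged p65 nuclear translocation ratio, normalised to the plate median, converted to robust z-scores and averaged across two replicates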. Reading the numbers: p65 translocation robust z-score: higher = more nuclear NF-kappaB p65 after LPS than the plate median; nuclear/cytoplasmic p65 ratio: higher = more nuclear NF-kappaB p65. Hit rule: 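Called active when z exceeds 3.3 or falls under -1.56 (median of Tlr4 controls), giving activity score of at least 50; no calls for control wells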. Meaning of the calls: active = hit (p65 shift raised or lowered); inactive = no clear change.
This is a random part of about 17,000 reagents. In the full data, 762 (4.5%) were called active. 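Active calls include both raised and lowered p65 entry, mostly lowered; wells with fewer than 50 cells lack a z-score.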 Raw values vary from plate to plate and are shown uncorrected. No sequences are given here.

| gene knocked down | PubChem SID | p65 translocation robust z-score | nuclear/cytoplasmic p65 ratio, rep 1 | nuclear/cytoplasmic p65 ratio, rep 2 | low cell count flag | outcome |
| --- | --- | --- | --- | --- | --- | --- |
| Tnks | SID315469780 | – | 1.2 | 1.04 | fewer than 50 cells per well; well left out of scoring | inactive |
| Tnks | SID315476318 | 0.59 | 1.62 | 1.92 | enough cells to score | inactive |
| Dync1h1 (dynein cytoplasmic 1 heavy chain 1) | SID315466354 | 1.27 | 1.49 | 1.52 | enough cells to score | inactive |
| Adamts10 (ADAM metallopeptidase with thrombospondin type 1 motif 10) | SID315478361 | 0.59 | 1.78 | 1.69 | enough cells to score | inactive |
| Arih2 (ariadne RBR E3 ubiquitin protein ligase 2) | SID315470182 | 0.67 | 1.63 | 1.68 | enough cells to score | inactive |
| Pigb (phosphatidylinositol glycan anchor biosynthesis, class B) | SID315471324 | -1.08 | 1.3 | 1.12 | enough cells to score | inactive |
| Gm5089 (predicted gene 5089) | SID315481484 | 0.43 | 1.43 | 1.67 | enough cells to score | inactive |
| Prss45 (serine protease 45) | SID315480736 | -0.38 | 1.67 | 1.48 | enough cells to score | inactive |
| Edem2 (ER degradation enhancer, mannosidase alpha-like 2) | SID315476728 | -0.19 | 1.59 | 1.58 | enough cells to score | inactive |
| Tmem44 (transmembrane protein 44) | SID315478319 | 0.72 | 1.51 | 1.66 | enough cells to score | inactive |
| Slc4a9 | SID315479492 | – | 1.35 | 1.44 | fewer than 50 cells per well; well left out of scoring | inactive |
| Slit3 (slit guidance ligand 3) | SID315469324 | -0.13 | 1.45 | 1.55 | enough cells to score | inactive |
| Trim30a (tripartite motif-containing 30A) | SID315469052 | – | 1.4 | 1.05 | fewer than 50 cells per well; well left out of scoring | inactive |
| Pofut1 (protein O-fucosyltransferase 1) | SID315477117 | -0.49 | 1.31 | 1.16 | enough cells to score | inactive |
| Klra9 (killer cell lectin-like receptor subfamily A, member 9) | SID315467669 | 0.47 | 1.49 | 1.44 | enough cells to score | inactive |
| Dnajc19 (DnaJ heat shock protein family (Hsp40) member C19) | SID315473185 | 1.04 | 1.49 | 1.32 | enough cells to score | inactive |
| Hspa1l (heat shock protein 1-like) | SID315467306 | -0.4 | 1.34 | 1.37 | enough cells to score | inactive |
| Mef2a (myocyte enhancer factor 2A) | SID315467890 | -0.12 | 1.52 | 1.24 | enough cells to score | inactive |
| Lrrc23 (leucine rich repeat containing 23) | SID315467764 | -2.35 | 1.35 | 1.16 | enough cells to score | active |
| Prkar1b (protein kinase, cAMP dependent regulatory, type I beta) | SID315468689 | -0.26 | 1.4 | 1.43 | enough cells to score | inactive |
| Gpr15 (G protein-coupled receptor 15) | SID315474204 | 0.09 | 1.51 | 1.6 | enough cells to score | inactive |
| Zfp710 (zinc finger protein 710) | SID315477584 | -0.15 | 1.27 | 1.51 | enough cells to score | inactive |
| Pcolce (procollagen C-endopeptidase enhancer protein) | SID315468412 | -1.45 | 1.32 | 1.16 | enough cells to score | inactive |
| Anp32a (acidic nuclear phosphoprotein 32 family member A) | SID315465417 | -0.95 | 1.43 | 1.57 | enough cells to score | inactive |
| Ccl21d (C-C motif chemokine ligand 21D) | SID315472159 | 0.76 | 1.42 | 1.47 | enough cells to score | inactive |
| Asf1b (anti-silencing function 1B histone chaperone) | SID315472722 | -1.56 | 1.33 | 1.33 | enough cells to score | inactive |
| Slc12a7 | SID315469275 | -1.18 | 1.24 | 1.12 | enough cells to score | inactive |
| Arf6 (ARF GTPase 6) | SID315465497 | 0.5 | 1.72 | 1.67 | enough cells to score | inactive |
| Gm10413 (predicted gene 10413) | SID315475123 | 0.65 | 1.45 | 1.53 | enough cells to score | inactive |
| Nxf2 (nuclear RNA export factor 2) | SID315475826 | -1.95 | 1.46 | 1.2 | enough cells to score | active |
| Fam78b (family with sequence similarity 78, member B) | SID315478516 | 0.33 | 1.47 | 1.78 | enough cells to score | inactive |
| Prr13 (proline rich 13) | SID315472247 | -0.1 | 1.43 | 1.52 | enough cells to score | inactive |
| Gpatch1 (G patch domain containing 1) | SID315473050 | – | 1.65 | 1.74 | fewer than 50 cells per well; well left out of scoring | inactive |
| Rin3 (Ras and Rab interactor 3) | SID315478156 | – | 1.19 | 1.17 | fewer than 50 cells per well; well left out of scoring | inactive |
| Acp7 (acid phosphatase 7, tartrate resistant) | SID315476297 | 1.22 | 1.67 | 1.62 | enough cells to score | inactive |
| Chmp5 (charged multivesicular body protein 5) | SID315475422 | – | 1.14 | 1.47 | fewer than 50 cells per well; well left out of scoring | inactive |
| Pou3f1 (POU domain, class 3, transcription factor 1) | SID315468632 | -0.14 | 1.46 | 1.41 | enough cells to score | inactive |
| Retnlb (resistin like beta) | SID315471738 | 1.34 | 1.62 | 1.35 | enough cells to score | inactive |

Single entries from above:
Entry for Asf1b (anti-silencing function 1B histone chaperone) [SID315472722] under “nuclear/cytoplasmic p65 ratio, rep 2”: 1.33
Prr13 (proline rich 13) [SID315472247], nuclear/cytoplasmic p65 ratio, rep 2 = 1.52
For “p65 translocation robust z-score”, Zfp710 (zinc finger protein 710) [SID315477584] shows -0.15
Pcolce (procollagen C-endopeptidase enhancer protein) [SID315468412], nuclear/cytoplasmic p65 ratio, rep 2 → 1.16
Under “nuclear/cytoplasmic p65 ratio, rep 2”, Gpr15 (G protein-coupled receptor 15) [SID315474204] reads 1.6
Result for Gm5089 (predicted gene 5089) [SID315481484] under “p65 translocation robust z-score”: 0.43

Next entries:
| gene knocked down | PubChem SID | p65 translocation robust z-score | nuclear/cytoplasmic p65 ratio, rep 1 | nuclear/cytoplasmic p65 ratio, rep 2 | low cell count flag | outcome |
| --- | --- | --- | --- | --- | --- | --- |
| Zdhhc13 (zinc finger, DHHC domain containing 13) | SID315479730 | – | 1.25 | 1.21 | fewer than 50 cells per well; well left out of scoring | inactive |
| Ubxn4 (UBX domain protein 4) | SID315473237 | – | 1.1 | 1.07 | fewer than 50 cells per well; well left out of scoring | inactive |
| H2-T10 (histocompatibility 2, T region locus 10) | SID315467126 | -0.5 | 1.59 | 1.45 | enough cells to score | inactive |
| Cd109 (CD109 antigen) | SID315479264 | 0.17 | 1.64 | 1.78 | enough cells to score | inactive |
| Hsd17b13 (hydroxysteroid (17-beta) dehydrogenase 13) | SID315479665 | -1.05 | 1.43 | 1.53 | enough cells to score | inactive |
| Smr3a (submaxillary gland androgen regulated protein 3A) | SID315469337 | – | 0 | 1.4 | fewer than 50 cells per well; well left out of scoring | inactive |
| Smr3a (submaxillary gland androgen regulated protein 3A) | SID315469339 | -0.31 | 1.41 | 1.19 | enough cells to score | inactive |
| Mzt2 (mitotic spindle organizing protein 2) | SID315474447 | 1.25 | 1.57 | 1.63 | enough cells to score | inactive |
| Ptger2 (prostaglandin E receptor 2 (subtype EP2)) | SID315468773 | -0.3 | 1.45 | 1.57 | enough cells to score | inactive |
| Scp2d1 (SCP2 sterol-binding domain containing 1) | SID315472364 | 0.51 | 1.46 | 1.56 | enough cells to score | inactive |
| Wdr1 (WD repeat domain 1) | SID315470029 | 0.33 | 1.62 | 1.59 | enough cells to score | inactive |
| Fpr2 (formyl peptide receptor 2) | SID315466740 | 0.58 | 1.59 | 1.66 | enough cells to score | inactive |
| Umps (uridine monophosphate synthetase) | SID315469935 | 1.85 | 1.64 | 1.88 | enough cells to score | inactive |
| Gria1 (glutamate receptor, ionotropic, AMPA1 (alpha 1)) | SID315467024 | 1.06 | 1.51 | 1.56 | enough cells to score | inactive |
| Hoxaas2 (Hoxa cluster antisense RNA 2) | SID315472556 | -0.85 | 1.21 | 1.4 | enough cells to score | inactive |
| Gtf2h1 (general transcription factor II H, polypeptide 1) | SID315467070 | 1.49 | 2.09 | 1.44 | enough cells to score | inactive |
| Chrac1 (chromatin accessibility complex 1) | SID315475929 | 0.22 | 1.49 | 1.41 | enough cells to score | inactive |
| Sytl1 (synaptotagmin-like 1) | SID315480867 | – | 1.25 | 0.995 | fewer than 50 cells per well; well left out of scoring | inactive |
| Hnrnpd (heterogeneous nuclear ribonucleoprotein D) | SID315465578 | – | 1.18 | 1.11 | fewer than 50 cells per well; well left out of scoring | inactive |
| Srsf10 (serine and arginine-rich splicing factor 10) | SID315466627 | -1.37 | 1.24 | 1.21 | enough cells to score | inactive |
| B4gat1 (beta-1,4-glucuronyltransferase 1) | SID315476753 | 0.95 | 1.62 | 1.63 | enough cells to score | inactive |
| Acad8 (acyl-Coenzyme A dehydrogenase family, member 8) | SID315472733 | 0.65 | 1.72 | 1.77 | enough cells to score | inactive |
| Or7e169 (olfactory receptor family 7 subfamily E member 169) | SID315480193 | 0.73 | 1.56 | 1.75 | enough cells to score | inactive |
| Mfrp (membrane frizzled-related protein) | SID315480722 | 1.07 | 1.76 | 1.81 | enough cells to score | inactive |
| Derl2 (Der1-like domain family, member 2) | SID315477069 | -0.2 | 1.48 | 1.89 | enough cells to score | inactive |
| Sall4 (spalt like transcription factor 4) | SID315476177 | 1.64 | 1.8 | 1.7 | enough cells to score | inactive |
| Cbln3 (cerebellin 3 precursor protein) | SID315471516 | – | 1.32 | 1.3 | fewer than 50 cells per well; well left out of scoring | inactive |
| Ier5 (immediate early response 5) | SID315467377 | -1.54 | 1.4 | 1.24 | enough cells to score | inactive |
| Akr1b10 (aldo-keto reductase family 1, member B10) | SID315473267 | 0.98 | 1.54 | 1.38 | enough cells to score | inactive |
| Brd4 (bromodomain containing 4) | SID315471736 | -2.13 | 1.28 | 1.31 | enough cells to score | active |
| Ddx51 (DEAD box helicase 51) | SID315473861 | – | 1.37 | 1.29 | fewer than 50 cells per well; well left out of scoring | inactive |
| Traf2 (TNF receptor-associated factor 2) | SID315469816 | -0.14 | 1.5 | 1.48 | enough cells to score | inactive |
| Pcdh15 (protocadherin 15) | SID315465581 | -0.13 | 1.52 | 1.32 | enough cells to score | inactive |
| Lage3 (L antigen family, member 3) | SID315472277 | – | 1.23 | 1.31 | fewer than 50 cells per well; well left out of scoring | inactive |
| Zfp869 (zinc finger protein 869) | SID315472684 | 0.22 | 1.63 | 1.66 | enough cells to score | inactive |
| Ccdc91 (coiled-coil domain containing 91) | SID315472779 | -0.03 | 1.35 | 1.42 | enough cells to score | inactive |
| Rpl37 (ribosomal protein L37) | SID315472943 | -0.86 | 1.37 | 1.42 | enough cells to score | inactive |
